# Source: PMC9796023 (Diabetes, Obesity & Metabolism, 2022)
# Test: general procedure: Fmoc solid-phase peptide synthesis
# Details: whole synthesis, chromatographic purity; ultra-high-performance liquid chromatography-high-resolution mass spectrometry
substance,measurement,value
"PEPTIDE1{H.[Aib].E.G.T.F.T.S.D.V.S.S.Y.L.E.G.Q.A.A.K.E.F.I.A.W.L.V.R.G.R.G.L}|PEPTIDE2{[ODDA].[gGlu].[Aib].[AEEA]}$PEPTIDE1,PEPTIDE2,20:R3-4:R2$$$V2.0",final purity (method not given),approximately 97%

# Some peptides are written in HELM: one residue between dots, names in brackets for other building blocks, links after the first $.
